According to PMC7092591:
These are yes or no findings as the source states them, for the method shown. Binding seen in cells or lysates may run through a third protein. Here binding means that the protein was enriched with, or labelled near, the bait; the list need not be complete.

Chains of the proteins cited; added tags and fusions are not shown.
UniProt P60281: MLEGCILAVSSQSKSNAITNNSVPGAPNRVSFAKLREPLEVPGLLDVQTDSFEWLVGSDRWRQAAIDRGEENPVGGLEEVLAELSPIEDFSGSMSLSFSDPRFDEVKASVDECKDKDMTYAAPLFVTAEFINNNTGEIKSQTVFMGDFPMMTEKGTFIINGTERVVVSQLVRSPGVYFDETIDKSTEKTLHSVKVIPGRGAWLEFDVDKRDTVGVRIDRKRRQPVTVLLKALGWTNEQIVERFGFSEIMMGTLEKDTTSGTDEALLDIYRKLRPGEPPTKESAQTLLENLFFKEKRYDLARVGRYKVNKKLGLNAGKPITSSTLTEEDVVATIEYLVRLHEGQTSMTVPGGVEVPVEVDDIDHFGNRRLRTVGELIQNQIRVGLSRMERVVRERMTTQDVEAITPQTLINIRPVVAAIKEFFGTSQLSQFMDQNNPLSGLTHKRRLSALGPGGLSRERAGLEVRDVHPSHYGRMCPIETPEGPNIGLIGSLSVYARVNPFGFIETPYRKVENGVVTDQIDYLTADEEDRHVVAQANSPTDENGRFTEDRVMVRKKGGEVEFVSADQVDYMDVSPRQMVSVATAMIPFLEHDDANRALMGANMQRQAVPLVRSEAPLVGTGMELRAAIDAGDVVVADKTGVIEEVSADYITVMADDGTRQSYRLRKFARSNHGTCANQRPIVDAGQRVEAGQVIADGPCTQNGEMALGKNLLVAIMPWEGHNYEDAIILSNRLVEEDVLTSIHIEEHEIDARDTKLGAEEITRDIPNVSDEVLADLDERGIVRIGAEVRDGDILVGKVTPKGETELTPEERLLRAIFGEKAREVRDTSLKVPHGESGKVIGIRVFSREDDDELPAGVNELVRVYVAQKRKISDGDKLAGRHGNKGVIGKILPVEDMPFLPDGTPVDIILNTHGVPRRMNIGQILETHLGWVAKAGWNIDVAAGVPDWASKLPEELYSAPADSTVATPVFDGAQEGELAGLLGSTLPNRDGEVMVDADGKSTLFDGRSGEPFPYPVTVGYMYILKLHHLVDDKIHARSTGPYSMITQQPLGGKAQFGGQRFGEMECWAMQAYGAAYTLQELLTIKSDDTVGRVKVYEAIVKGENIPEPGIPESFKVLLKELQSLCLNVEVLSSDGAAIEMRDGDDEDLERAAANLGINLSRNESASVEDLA
UniProt Q59553: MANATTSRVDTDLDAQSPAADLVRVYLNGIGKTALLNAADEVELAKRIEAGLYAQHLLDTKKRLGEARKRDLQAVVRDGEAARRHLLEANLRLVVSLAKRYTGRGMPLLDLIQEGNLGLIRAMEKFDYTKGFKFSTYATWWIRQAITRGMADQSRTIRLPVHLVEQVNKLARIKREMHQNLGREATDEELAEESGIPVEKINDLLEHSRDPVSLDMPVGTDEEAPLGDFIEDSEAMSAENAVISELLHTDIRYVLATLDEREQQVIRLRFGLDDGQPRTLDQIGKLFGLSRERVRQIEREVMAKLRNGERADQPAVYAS

Molecular target: RNA polymerase β-subunit (M. smegmatis (endogenous in M. smegmatis mc2155)) (UniProt P60281)
Assay: affinity purification with mass spectrometry; M. smegmatis cultures treated with 1% formaldehyde (10 min, 37 °C), lysed, treated with micrococcal nuclease and RNAse A; anti-RNAP β-subunit antibody on Protein G Dynabeads, 2 h at 4 °C; washes up to 750 mM NaCl and 250 mM LiCl; on-bead tryptic digestion, LC-MS/MS; controls: bare Protein G Dynabeads and anti-MYH7 antibody; biological triplicate

binding: binds
Substance: MysB (from UniProt Q59553 1-319)
